Laboratory results published in patent US20220079993A1, “NON-NATURALLY OCCURRING THERMOGENIC ADIPOCYTES, METHODS OF MAKING, AND METHODS OF USE THEREOF” (University of Georgia Research Foundation, Inc., priority 2019, published 2022).
For at least one compound, name, drawing or mass did not settle the structure. Some compounds share one wording; it may come from a single statement.

Assays:
Format in all cases: cell-based, human
UCP1 = test: Secondary screen, UCP1 transcript levels by qRT-PCR; conditions: secondary screen of primary hits
From the text: FIG. 8A is a scheme used for high-throughput screening (HTS). FIG. 8B is a scatter-plot of glycerol release for each compound assayed (n=3889) in an HTS screen. Data are shown as the percentage of glycerol released compared to untreated beige adipocytes (% of control). FIG. 8C is a computational analysis of preliminary hits identified in the HTS using BiNChE. FIG. 8D is a plot showing the results of a secondary hit validation of primary compounds performed by evaluating levels of UCP1 transcript by qRT-PCR. Unstimulated beige cells, selected adrenergic agonists, and potential new non-adrenergic beige fat activators identified in the primary screen are shown. Transcript levels were normalized to UCP1 levels in ADSCs, n=3 for each technical 20 replicate. *P<0.0.05, **P<0.01, ***P<0.005. FIGS. 8E and 8F are bar graphs showing secondary screening of known thermogenic activators. Transcript levels of UCP1 were assayed in unstimulated ADSCs and ADSC-derived beige adipocytes and following treatment with forskolin (FSK, 20 μM), isoproterenol (1, 10 μM) (8E) and Mirabegron (1, 10 and 25 μM) (8F). Transcript levels were determined by qRT-PCR. n=3 for each independent replicate. Data are mean+/−standard deviation. *P<0.0.05, **P<0.01.
Cells were washed with DPBS, lysed directly on the plate and used for RNA isolation with the E.Z.N.A Total RNA Kit (Omega, R6834-02) according to manufacturer instructions. RNA quantitation was performed with the Biotek Synergy 2 plate reader and cDNA was synthesized using 1 ug of RNA with the iScript cDNA Synthesis Kit (Bio-Rad, 1708841). The qRT-PCR was performed on a ViiA7 Real-Time PCR System (ThermoFisher) using a TaqMan Universal PCR Master Mix (ThermoFisher, 4324020) according to manufacturer instructions with the following TaqMan primer/probe sets (UCP1, Hs01084772_m1), DIO2, Hs00988260_ml, 18S rRNA, Hs03928985_g1). […]
To determine if hits identified in the first-round screen activated the thermogenic program, UCP1 transcript levels were used as a readout. […]

GC = test: Thermogenic dye (ERthermAC) assay; conditions: 3 hours of FSK treatment
HSL, CREB and P38MAPK = test: Western blot of phosphorylation after FSK treatment; conditions: within 1 hour of FSK-treatment, beige adipocytes
beige adipocytes = test: High-throughput primary screen, lipolysis assay (glycerol release), 384-well; conditions: 20 μM, 24 hours; cut-offs at 2-fold
Experimental: ADSCs were seeded at 5000 cell/cm^2 in 12-well plates, grown for 5 days and then induced to differentiate into GC for 20 days. […] Cells were treated with forskolin (20 μM) for indicated time periods and supernatant samples were collected. Lipolysis assay was performed with free glycerol reagent (Sigma, F6428-40ML), according to manufacturer instructions.
ADSCs were plated in 384-well plates at a density of 5000 cell/cm2 and grown to confluency over ˜4 days. Cells were then differentiated to beige adipocytes using B-8 medium for 21 days. All cell culture and incubations in the 384-well format were done at 37° C. and 5% CO2. […] The use of FDA-approved drugs may allow for re-purposing for therapeutic use.
Lipolysis assays were performed after 24 hours of drug treatment by measuring free glycerol released in the 384-well format, using the procedure described above. Absorbance for each compound was normalized to untreated control samples for each plate and calculated as a percent of the control. Cut-offs for “activating” and “inhibiting” compounds were set at 2-fold. Validation assays were performed for select compounds at a range of concentration doses.

Structure (SMILES)	Activation of the thermogenic program (UCP1 transcript), in words (UCP1)	Thermogenic dye (ERthermAC) signal (GC)	Phosphorylation of HSL, CREB and P38MAPK (HSL, CREB and P38MAPK)	Outcome in the primary screen (glycerol release), in words (beige adipocytes)
O=C(Nc1c[nH]nc1-c1nc2ccc(CN3CCOCC3)cc2[nH]1)NC1CC1 [AT9283]	activators in both rounds of screening	–	–	–
CCc1cnn2c(NCc3ccc[n+]([O-])c3)cc(N3CCCC[C@H]3CCO)nc12 [Dinaciclib]	activators in both rounds of screening	–	–	–
CCOC(=O)C1=C(C)NC(C)=C(C(=O)OC)C1c1cccc(Cl)c1Cl (stereo not drawn) [Felodipine]	activators in both rounds of screening	–	–	–
C=C[C@@]1(C)CC(=O)[C@]2(O)[C@@]3(C)[C@@H](O)CCC(C)(C)[C@@H]3[C@H](O)[C@H](OC(C)=O)[C@@]2(C)O1 [Forskolin]	–	consistent reduction in dye signal	phosphorylated	identified as primary hits
